# The list does not hold the whole screen: it is rich in T/C values a quarter to a half above the control, in often repeated tests (any T/C) and in doses without a T/C. Other doses and runs of a compound stand elsewhere. T/C is the treated group as % of the vehicle group. Some doses have a count of surviving animals in place of a T/C: the source files T/C as zero there, which appears to mark a toxic dose or a test without result, not a measured value. Some survivor counts are full or nearly so, which does not show that the dose was tolerated: the source hardly ever lists a survival T/C far under the control, and the zero likely stands for such cases as well. Survivors were counted at the toxicity check, usually on the fifth day, unless a day is given; later deaths do not show. Schedule codes are those of the source, read here as Q, the interval in days (D) or hours (H), X, the number of doses. Some doses were run more than once; the results are listed from low to high. Where survival is the endpoint, this PubChem deposit counts one and a half times the control or more as active, and values a quarter to a half above the control carry no call in these data; other NCI protocols may use other cut-offs. Some T/C values carry the count of animals alive at the toxicity check (mostly the fifth day); without a count, all were alive then.
# System: L1210 leukemia ip in BDF1 mice, survival T/C
# Assay: NCI In Vivo Anticancer Drug Screen. Data for tumor model L1210 Leukemia (intraperitoneal) in B6D2F1 (BDF1) mice
# Details: T/C endpoint: mean survival time, higher T/C = longer survival
# [1] = dose: 100.0 mg/kg/injection, schedule: Q01DX001 (ip), vehicle: Klucel (hydroxypropylcellulose) (HPC)
# [2] = dose: 400.0 mg/kg/injection, schedule: Q01DX001 (ip), vehicle: Klucel (hydroxypropylcellulose) (HPC)
# [3] = dose: 200.0 mg/kg/injection, schedule: Q04DX002 (ip), vehicle: Klucel (hydroxypropylcellulose) (HPC)
# [4] = dose: 400.0 mg/kg/injection, schedule: Q04DX003 (ip), vehicle: other
# [5] = dose: 50.0 mg/kg/injection, schedule: Q01DX009 (ip), vehicle: saline
# [6] = dose: 100.0 mg/kg/injection, schedule: Q04DX003 (ip), vehicle: saline
# [7] = dose: 200.0 mg/kg/injection, schedule: Q01DX001 (ip), vehicle: saline
# [8] = dose: 400.0 mg/kg/injection, schedule: Q01DX001 (ip), vehicle: saline
# [9] = dose: 400.0 mg/kg/injection, schedule: Q01DX009 (ip), vehicle: saline
# [10] = dose: 50.0 mg/kg/injection, schedule: Q01DX009 (ip), vehicle: Klucel (hydroxypropylcellulose) (HPC)
# [11] = dose: 100.0 mg/kg/injection, schedule: Q01DX009 (ip), vehicle: Klucel (hydroxypropylcellulose) (HPC)
# [12] = dose: 200.0 mg/kg/injection, schedule: Q01DX009 (ip), vehicle: Klucel (hydroxypropylcellulose) (HPC)
# [13] = dose: 200.0 mg/kg/injection, schedule: Q01DX009 (ip), vehicle: saline
# [14] = dose: 25.0 mg/kg/injection, schedule: Q01DX009 (ip), vehicle: Klucel (hydroxypropylcellulose) (HPC)
# [15] = dose: 200.0 mg/kg/injection, schedule: Q04DX003 (ip), vehicle: saline
# [16] = dose: 400.0 mg/kg/injection, schedule: Q04DX003 (ip), vehicle: saline
# [17] = dose: 400.0 mg/kg/injection, schedule: Q04DX003 (ip), vehicle: Klucel (hydroxypropylcellulose) (HPC)
smiles,measurement,setting,value
Cc1c(N)nc(N)nc1C(=O)O,survivor count,[1],1 of 5
same,survivor count,"dose: 200.0 mg/kg/injection, schedule: Q01DX001 (ip), vehicle: Klucel (hydroxypropylcellulose) (HPC)",0 of 6
same,survivor count,[2],1 of 6
COC(=O)N1C=CC2C=CC1C(C#N)(C#N)C2(C#N)C#N (stereo not given),survivor count,"dose: 100.0 mg/kg/injection, schedule: Q04DX002 (ip), vehicle: Klucel (hydroxypropylcellulose) (HPC)",0 of 3
same,survivor count,[3],0 of 3
same,survivor count,"dose: 400.0 mg/kg/injection, schedule: Q04DX002 (ip), vehicle: Klucel (hydroxypropylcellulose) (HPC)",0 of 3
CCCCNc1ccc([N+](=O)[O-])cc1[N+](=O)[O-],survivor count,[4],6 of 6
C[Se]c1ncnc2c1c(C#N)cn2C1OC(CO)C(O)C1O (stereo not given),T/C,"dose: 25.0 mg/kg/injection, schedule: Q01DX005 (ip), vehicle: saline",129 % of control
same,survivor count,"dose: 100.0 mg/kg/injection, schedule: Q01DX005 (ip), vehicle: saline",0 of 6
same,survivor count,"dose: 200.0 mg/kg/injection, schedule: Q01DX005 (ip), vehicle: saline",0 of 6
CC(=N\O)/C(=N/O)c1ccc(O)cc1,survivor count,"dose: 40.0 mg/kg/injection, schedule: Q01DX001 (ip), vehicle: saline",0 of 6
same,survivor count,"dose: 75.0 mg/kg/injection, schedule: Q01DX001 (ip), vehicle: saline",0 of 6
same,survivor count,"dose: 80.0 mg/kg/injection, schedule: Q01DX001 (ip), vehicle: saline",0 of 6
same,survivor count,"dose: 150.0 mg/kg/injection, schedule: Q01DX001 (ip), vehicle: saline",0 of 6
same,survivor count,"dose: 300.0 mg/kg/injection, schedule: Q01DX001 (ip), vehicle: saline",1 of 6
CCOC(=O)c1cnc(SC)nc1Nc1cccc(C(F)(F)F)c1,survivor count,"dose: 200.0 mg/kg/injection, schedule: Q01DX001 (ip), vehicle: gum acacia",6 of 6
CCOC(=O)C[P+](c1cccc(OC)c1)(c1cccc(OC)c1)c1cccc(OC)c1,survivor count,"dose: 60.0 mg/kg/injection, schedule: Q01DX001 (ip), vehicle: carboxymethylcellulose (CMC)",1 of 6
COC(=O)C1CCC(NC(=O)N(CCCl)N=O)CC1 (stereo not given),T/C,"dose: 67.0 mg/kg/injection, schedule: Q01DX001 (ip), vehicle: Klucel (hydroxypropylcellulose) (HPC)",137 % of control [9 of 10 alive]
same,survivor count,[1],10 of 10
same,survivor count,"dose: 150.0 mg/kg/injection, schedule: Q01DX001 (ip), vehicle: Klucel (hydroxypropylcellulose) (HPC)",9 of 10 and 10 of 10
same,survivor count,"dose: 225.0 mg/kg/injection, schedule: Q01DX001 (ip), vehicle: Klucel (hydroxypropylcellulose) (HPC)",3 of 10 and 10 of 10
same,survivor count,"dose: 335.0 mg/kg/injection, schedule: Q01DX001 (ip), vehicle: Klucel (hydroxypropylcellulose) (HPC)",0 of 10 and 1 of 10
c1ccc2c(C3CCCCN3)c[nH]c2c1 (stereo not given),survivor count,[5],6 of 6
same,survivor count,[6],5 of 6
same,survivor count,[7],1 of 6
same,survivor count,[8],0 of 6
CC(=O)C(CCC#N)(CCC#N)c1ccccc1,survivor count,[3],3 of 3
O=C(CNCc1ccccc1)Oc1c(Cl)c(Cl)c(Cl)c(Cl)c1Cl,survivor count,[4],0 of 6
O=S(=O)(NO)c1cccc(S(=O)(=O)NO)c1,survivor count,[9],6 of 6
Cc1nc(NCc2ccccc2)c2cc[nH]c2n1,survivor count,"dose: 50.0 mg/kg/injection, schedule: Q01DX001 (ip), vehicle: saline",0 of 4
same,survivor count,[10],5 of 6
same,survivor count,"dose: 50.0 mg/kg/injection, schedule: Q04DX003 (ip), vehicle: Klucel (hydroxypropylcellulose) (HPC)",2 of 4
same,survivor count,"dose: 100.0 mg/kg/injection, schedule: Q01DX001 (ip), vehicle: saline",0 of 4
same,survivor count,[11],0 of 6
same,survivor count,[7],0 of 4
same,survivor count,[12],0 of 6
same,survivor count,[8],0 of 4
same,survivor count,"dose: 400.0 mg/kg/injection, schedule: Q01DX009 (ip), vehicle: Klucel (hydroxypropylcellulose) (HPC)",0 of 6
CCCCC[As](=O)(O)O,survivor count,"dose: 12.5 mg/kg/injection, schedule: Q01DX001 (ip), vehicle: carboxymethylcellulose (CMC)",0 of 4
same,survivor count,"dose: 25.0 mg/kg/injection, schedule: Q01DX001 (ip), vehicle: carboxymethylcellulose (CMC)",0 of 4
same,survivor count,"dose: 50.0 mg/kg/injection, schedule: Q01DX001 (ip), vehicle: carboxymethylcellulose (CMC)",0 of 4
CCOC(=O)/C(C#N)=C(/C)C(C)C(=O)OCC (stereo not given),survivor count,[13],1 of 6
same,survivor count,[9],0 of 6
CCCCCCc1nc2nc(Cl)c(Cl)nc2[nH]1,survivor count,"dose: 200.0 mg/kg/injection, schedule: Q04DX003 (ip), vehicle: saline with Tween-80",6 of 6
same,survivor count,"dose: 400.0 mg/kg/injection, schedule: Q04DX003 (ip), vehicle: saline with Tween-80",6 of 6
Cc1nccnc1N,survivor count,[13],1 of 6
same,survivor count,[9],0 of 6
O=C(N/N=C/C1CCCCC1)C(=O)N/N=C/C1CCCCC1,survivor count,[14],6 of 6
same,T/C,[10],90 and 101 % of control
same,survivor count,[10],6 of 6
same,T/C,[11],"88, 90, 95, 96 % of control"
NNC12CC3CC(CC(C3)C1)C2,survivor count,"dose: 25.0 mg/kg/injection, schedule: Q01DX009 (ip), vehicle: saline",5 of 6
same,survivor count,[5],0 of 6
same,survivor count,[6],1 of 6
same,survivor count,[15],0 of 6
same,survivor count,[16],0 of 6
BrCc1cccc2cccc(CBr)c12,survivor count,[2],3 of 6
COc1cccc(NC(=O)NCCCl)c1,survivor count,"dose: 100.0 mg/kg/injection, schedule: Q04DX003 (ip), vehicle: Klucel (hydroxypropylcellulose) (HPC)",6 of 6
same,survivor count,"dose: 200.0 mg/kg/injection, schedule: Q04DX003 (ip), vehicle: Klucel (hydroxypropylcellulose) (HPC)",6 of 6
same,survivor count,[17],6 of 6
O=C(O)CC(O)C(F)(F)C(F)(F)C(F)(F)F (stereo not given),survivor count,[9],5 of 6
C[CH2][Ge]1([CH2]C)[CH2]CC2(CCN(CCCN(C)C)C2)C[CH2]1,T/C,"dose: 100.0 mg/kg/injection, schedule: Q04DX002 (ip), vehicle: saline","94, 98, 109 [4 of 6 alive], 113 % of control"
same,survivor count,[6],3 of 6
same,survivor count,[13],0 of 6
same,survivor count,"dose: 200.0 mg/kg/injection, schedule: Q04DX002 (ip), vehicle: saline",0 of 3 and 0 of 6
same,survivor count,[15],0 of 6
same,survivor count,[9],0 of 6
same,survivor count,"dose: 400.0 mg/kg/injection, schedule: Q04DX002 (ip), vehicle: saline",0 of 3 and 0 of 6
same,survivor count,[16],0 of 6
N#Cc1ccc(Br)cc1[N+](=O)[O-],survivor count,"dose: 12.5 mg/kg/injection, schedule: Q01DX009 (ip), vehicle: Klucel (hydroxypropylcellulose) (HPC)",6 of 6
same,survivor count,[14],6 of 6
same,survivor count,[10],2 of 6
same,survivor count,[11],1 of 6
same,survivor count,[12],0 of 6
same,survivor count,[17],0 of 6
O=C1C(N2CCCC2)=C(N2CC2)C(=O)C(N2CCCC2)=C1N1CC1,survivor count,"dose: 1.0 mg/kg/injection, schedule: Q01DX001 (ip), vehicle: saline",6 of 6
same,T/C,"dose: 3.12 mg/kg/injection, schedule: Q04DX003 (ip), vehicle: saline",126 % of control
same,T/C,"dose: 6.25 mg/kg/injection, schedule: Q04DX003 (ip), vehicle: saline",143 % of control
same,survivor count,"dose: 25.0 mg/kg/injection, schedule: Q04DX003 (ip), vehicle: saline",0 of 6
Cn1c(=O)c2[nH]c(C3CCCC3)nc2n(C)c1=O,survivor count,[8],0 of 4
